PubChem BioAssay AID1259254 | NCATS, 2017
Assay: 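Gene knock-downs that lead to re-replication, shown by excess G2 DNA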 (primary screen). Cell system: human HCT116 colorectal cancer cells. Reagents: single siRNA against human genes. Time to read-out: 3 days. Measured: 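Imaged Hoechst DNA stain sorts each cell into a cycle phase by DNA amount; per plate, G2 fraction set to 0% for non-targeting and 100% for GMNN siRNA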. Reading the numbers: G2 robust z-score: higher = more G2 cells, more excess DNA replication. Hit rule: 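An siRNA counts as active if its G2 robust z-score lies at least 5 MADs above the screen median; here such calls match roughly 38% of GMNN control or more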.
The deposit covers about 59,000 reagents; this is an unselected part. About 1,550 of them (2.6%) were called active. 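G2 share is only a proxy for re-replication; each gene was hit by three separate siRNAs, and active genes were retested.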 Entries without a mark were called inactive. Reagents against one gene are numbered here. Further read-outs or replicates are left out here. Reagent sequences are not shown. Not stated in the record: the amount of reagent.

For TRIM51 #1, the entry reads G2 robust z-score 0.326. TRIM51 #2 scored G2 robust z-score -1.34. TRIM51 #3 gave G2 robust z-score 0.69. With knock-down of DAOA #1, the record shows G2 robust z-score -0.784. DAOA #2 gave G2 robust z-score 0.371. For DAOA #3 the deposit lists G2 robust z-score -0.307.

KRTAP21-2 #1 gave G2 robust z-score -1.09. For KRTAP21-2 #2, the entry reads G2 robust z-score 1.33. Knock-down of KRTAP21-2 #3 gave: G2 robust z-score 0.177.

2 entries from above, ordered by “G2 robust z-score”, lowest first.
KRTAP21-2 #3 — G2 robust z-score: 0.177
KRTAP21-2 #2 — G2 robust z-score: 1.33

The results go on:
Depletion of EFNB2 #1 gave: G2 robust z-score -0.76. Knock-down of EFNB2 #2 gave: G2 robust z-score 1.04. Silencing of EFNB2 #3 came out at: G2 robust z-score -0.621. Against MTREX #1, the values are G2 robust z-score 2.14. MTREX #2 showed G2 robust z-score 2.55. For MTREX #3, the entry reads G2 robust z-score 1.43.

Knock-down of UCHL5 #1 came out at: G2 robust z-score 0.629. For UCHL5 #2 the deposit lists G2 robust z-score 0.612. UCHL5 #3 showed G2 robust z-score -0.564. Against OR10AG1 #1, the values are G2 robust z-score -0.853. Depletion of OR10AG1 #2 resulted in: G2 robust z-score 2.04. OR10AG1 #3 gave G2 robust z-score 0.0491.

Silencing of MPRIP #1 gave: G2 robust z-score -0.36. MPRIP #2 showed G2 robust z-score -0.555. MPRIP #3 scored G2 robust z-score -0.0681.
